Experimental data: PubChem BioAssay AID1259254 (NCATS, 2017)

- Screen: 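Genome-wide screen for genes that prevent DNA re-replication in cancer cells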 (primary screen)
- System: human HCT116 colorectal cancer cells
- Reagents: single siRNA against human genes
- Time to read-out: 3 days
- Measured: 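Nuclei stained with Hoechst and imaged; cell-cycle phase assigned by DNA content; G2 share scaled per plate, non-targeting siRNA 0%, GMNN siRNA 100%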
- Scale: G2 robust z-score and G2 cells, % of GMNN control: higher = more G2 cells, more excess DNA replication; raw share of cells in G2: higher = larger share of cells with G2 DNA content
- Active means: 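An siRNA counts as active if its G2 robust z-score lies at least 5 MADs above the screen median; here such calls match roughly 38% of GMNN control or more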
The deposit covers about 59,000 reagents; shown is a random part of them. Over the whole deposit, about 1,550 (2.6%) are marked active. 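G2 share is only a proxy for re-replication; each gene was hit by three separate siRNAs, and active genes were retested.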 Raw values are not corrected between plates. Entries without a mark were called inactive. Reagents against one gene are numbered here. The record does not give: the amount of reagent.

gene symbol,reagent no.,G2 robust z-score,"G2 cells, % of GMNN control",raw share of cells in G2 (%)
ST20-AS1 (GeneID 283687),1,0.509,6.55,5.26
ST20-AS1 (GeneID 283687),2,2.76,22.4,11.8
ST20-AS1 (GeneID 283687),3,-0.188,1.65,3.68
MMRN2 (GeneID 79812),1,0.11,3.74,6
MMRN2 (GeneID 79812),2,-0.2,1.56,4.99
MMRN2 (GeneID 79812),3,1.02,10.1,5.14
SDHB (GeneID 6390),1,3.23,25.7,12.5
SDHB (GeneID 6390),2,-0.0994,2.27,5.32
SDHB (GeneID 6390),3,1.78,15.5,10.9
OR6C4 (GeneID 341418),1,5.74 (active),43.4,18.9
OR6C4 (GeneID 341418),2,-0.455,-0.237,3.16
OR6C4 (GeneID 341418),3,0.564,6.94,6.98
DOP1A (GeneID 23033),1,1.95,16.7,11.5
DOP1A (GeneID 23033),2,0.672,7.7,7.31
DOP1A (GeneID 23033),3,7.05 (active),52.6,22.8
CPNE7 (GeneID 27132),1,-0.319,0.722,4.23
CPNE7 (GeneID 27132),2,1.34,12.4,8.3
CPNE7 (GeneID 27132),3,3.83,29.9,19.7
PSORS1C2 (GeneID 170680),1,-0.928,-3.56,2.33
PSORS1C2 (GeneID 170680),2,1.89,16.3,8.42
PSORS1C2 (GeneID 170680),3,-0.246,1.24,3.15
KRT85 (GeneID 3891),1,9.4 (active),69.1,32.9
KRT85 (GeneID 3891),2,-1.06,-4.5,1.71
KRT85 (GeneID 3891),3,1.5,13.5,10.6
ADPRH (GeneID 141),1,2.7,22,12.2
ADPRH (GeneID 141),2,-0.173,1.75,5.7
ADPRH (GeneID 141),3,0.739,8.17,7.03
PAM16 (GeneID 51025),1,-0.464,-0.3,3.16
PAM16 (GeneID 51025),2,-0.54,-0.832,3.54
PAM16 (GeneID 51025),3,0.524,6.65,7.06
RAET1G (GeneID 353091),1,3.02,24.2,13.1
RAET1G (GeneID 353091),2,-0.814,-2.76,4.71
RAET1G (GeneID 353091),3,0.752,8.26,8.18
THBS2 (GeneID 7058),1,-0.667,-1.73,5.1
THBS2 (GeneID 7058),2,1.05,10.3,7.38
THBS2 (GeneID 7058),3,1.72,15.1,9.72
LOC730378 (retired record) (GeneID 730378),1,0.809,8.66,6.75
LOC730378 (retired record) (GeneID 730378),2,-1.28,-6.05,1.3
LOC730378 (retired record) (GeneID 730378),3,-0.721,-2.1,2.64
GOLM2 (GeneID 113201),1,-0.209,1.5,2.26
GOLM2 (GeneID 113201),2,-0.351,0.5,4.29
GOLM2 (GeneID 113201),3,-0.306,0.813,3.57
CASR (GeneID 846),1,-0.578,-1.1,5.45
CASR (GeneID 846),2,0.651,7.55,7.16
CASR (GeneID 846),3,-0.683,-1.84,2.71
CCDC24 (GeneID 149473),1,-0.191,1.63,4.37
CCDC24 (GeneID 149473),2,-0.625,-1.43,2.47
CCDC24 (GeneID 149473),3,0.0402,3.25,4.2
ADAT2 (GeneID 134637),1,0.478,6.33,8.97
ADAT2 (GeneID 134637),2,-0.28,1,5.07
ADAT2 (GeneID 134637),3,0.729,8.1,8.1
CHMP7 (GeneID 91782),1,-0.609,-1.32,3.52
CHMP7 (GeneID 91782),2,-0.241,1.27,3.4
CHMP7 (GeneID 91782),3,1.61,14.3,7.47
LACC1 (GeneID 144811),1,-0.228,1.36,4.29
LACC1 (GeneID 144811),2,2.15,18.1,8.5
LACC1 (GeneID 144811),3,-0.548,-0.891,2.76
ASIC2 (GeneID 40),1,6.69 (active),50,23.5
ASIC2 (GeneID 40),2,-1.15,-5.1,3.06
ASIC2 (GeneID 40),3,0.662,7.62,7.35
OXR1 (GeneID 55074),1,0.106,3.72,5.95
OXR1 (GeneID 55074),2,1.18,11.3,8.82
OXR1 (GeneID 55074),3,-0.699,-1.95,2.51
ZNF597 (GeneID 146434),1,5.86 (active),44.2,18.3
ZNF597 (GeneID 146434),2,3.47,27.4,12.7
ZNF597 (GeneID 146434),3,1.42,12.9,8.06
PLCB3 (GeneID 5331),1,-1.17,-5.24,3.09
PLCB3 (GeneID 5331),2,-1.02,-4.23,3.03
PLCB3 (GeneID 5331),3,4.93,37.7,14.8

4 successive entries from above, quoted:
gene symbol,reagent no.,G2 robust z-score,"G2 cells, % of GMNN control",raw share of cells in G2 (%)
SDHB (GeneID 6390),3,1.78,15.5,10.9
OR6C4 (GeneID 341418),1,5.74 (active),43.4,18.9
OR6C4 (GeneID 341418),2,-0.455,-0.237,3.16
OR6C4 (GeneID 341418),3,0.564,6.94,6.98
